Test results reported in US9597271B2, “Cosmetic compositions and methods” (The Procter & Gamble Company, priority 2013, dated 2017).
Some entries share one result that the patent states for a list of compounds.

Target: T1, 20S proteasome (Mus musculus, UniProt O55234)
T1 construct: endogenous in cells; host or cells: B16 melanoma cells (lysate after 20-24 h treatment)
T1 sequence (O55234 60-264): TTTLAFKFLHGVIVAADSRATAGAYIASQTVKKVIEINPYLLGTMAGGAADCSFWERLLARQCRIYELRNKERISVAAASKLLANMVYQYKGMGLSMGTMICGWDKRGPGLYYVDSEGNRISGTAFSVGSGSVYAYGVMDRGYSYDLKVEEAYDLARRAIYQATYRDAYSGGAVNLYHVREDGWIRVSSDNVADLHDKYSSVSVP
Experiment: Proteasomal protease in vitro assay (ProteasomeGlo, Suc-LLVY luminogenic substrate) in B16 melanoma cells
Assay type: cell-based
Settings: combined with 250 μM niacinamide
Experimental: The following proteasomal protease in vitro assay was employed for evaluating activity associated with this pathway. Cultures of B16 melanoma cells (about 25% confluence) were treated with a culture media (Dulbecco's Modified Eagle Medium, 11995-065 Life technologies supplemented with 5% Fetal Bovine Serum, 30-2020, American Tissue Culture Collection and 1% Penicillin/streptomycin, 15140, Life Technologies) and one of 1) a vehicle (DMSO) containing niacinamide, 2) a vehicle (DMSO) containing one of glycerol ricinoleate, sodium ricinoleate and butyl acetyl ricinoleate at varying dilutions, 3) a vehicle (DMSO) containing a combination of niacinamide and one of the ricinoleate compounds listed above, and 4) a vehicle (DMSO) containing 2-hexyl-decanol as a positive control. The final dilution of DMSO in the culture medium was 1% in all instances. […] Luminescence counts (a unit less measurement from the plate reader) from developing the cleaved substrate with luciferase detection system (ProteasomeGlo® from Promega, Madison, Wis.) was measured in an Envision Plate Reader (Perkin Elmer, Waltham, Mass.). Other plate luminometer/luminescence readers may also be used as known in the art.
Luminescence counts for treatment groups were divided by the luminescence counts from the vehicle control (1% DMSO, as diluted in the culture medium). […]

| SMILES | Ricinoleate concentration at which synergy with niacinamide is statistically significant |
| --- | --- |
| CCCCCC[C@@H](O)C/C=C\CCCCCCCC(=O)OCC(O)CO (some centres unmarked) [Glyceryl ricinoleate, glyceryl ricinoleate] | ≥ 0.0016% |
| CCCCCC[C@@H](O)C/C=C\CCCCCCCC(=O)[O-].[Na+] [Sodium ricinoleate, sodium ricinoleate] | ≥ 0.0016% |
